Experimental data published in article PMC8560770.
These are yes or no findings as the source states them, for the method shown. Binding seen in cells or lysates may run through a third protein. These calls come from enrichment with a bait or labelling near it, and not all partners need be listed.

Amino acid sequences for entries named in this document (tags omitted).
UniProt Q96RR4: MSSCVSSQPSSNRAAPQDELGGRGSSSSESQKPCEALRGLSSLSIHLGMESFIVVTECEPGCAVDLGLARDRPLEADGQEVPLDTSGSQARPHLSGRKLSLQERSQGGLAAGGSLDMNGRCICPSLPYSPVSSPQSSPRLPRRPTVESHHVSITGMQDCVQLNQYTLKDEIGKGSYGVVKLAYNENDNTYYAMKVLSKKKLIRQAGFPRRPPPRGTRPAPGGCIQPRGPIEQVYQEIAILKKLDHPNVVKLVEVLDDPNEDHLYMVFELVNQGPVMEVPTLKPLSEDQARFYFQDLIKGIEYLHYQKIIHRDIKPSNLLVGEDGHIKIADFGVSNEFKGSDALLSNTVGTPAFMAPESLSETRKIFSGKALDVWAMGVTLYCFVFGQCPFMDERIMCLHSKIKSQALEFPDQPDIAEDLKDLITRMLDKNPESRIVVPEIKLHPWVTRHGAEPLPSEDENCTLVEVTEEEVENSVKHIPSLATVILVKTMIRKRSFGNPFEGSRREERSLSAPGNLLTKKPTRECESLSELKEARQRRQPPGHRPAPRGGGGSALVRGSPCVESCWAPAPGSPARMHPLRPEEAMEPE

Target: Calcium/calmodulin-dependent protein kinase kinase 2 (CaMKK2), endogenous in LNCaP cells (human (endogenous in LNCaP)) (UniProt Q96RR4)
Assay: affinity purification with mass spectrometry; endogenous CaMKK2 IP (CaMKK2 antibody, Protein A Dynabeads) from LNCaP lysate, cells with 10 nM R1881 for 24 h or vehicle; rabbit IgG control; mass spectrometry

B1: δ-COP (ARCN1), endogenous in LNCaP cells (protein, UniProt P48444 1-511)
chain: MVLLAAAVCTKAGKAIVSRQFVEMTRTRIEGLLAAFPKLMNTGKQHTFVETESVRYVYQPMEKLYMVLITTKNSNILEDLETLRLFSRVIPEYCRALEENEISEHCFDLIFAFDEIVALGYRENVNLAQIRTFTEMDSHEEKVFRAVRETQEREAKAEMRRKAKELQQARRDAERQGKKAPGFGGFGSSAVSGGSTAAMITETIIETDKPKVAPAPARPSGPSKALKLGAKGKEVDNFVDKLKSEGETIMSSSMGKRTSEATKMHAPPINMESVHMKIEEKITLTCGRDGGLQNMELHGMIMLRISDDKYGRIRLHVENEDKKGVQLQTHPNVDKKLFTAESLIGLKNPEKSFPVNSDVGVLKWRLQTTEESFIPLTINCWPSESGNGCDVNIEYELQEDNLELNDVVITIPLPSGVGAPVIGEIDGEYRHDSRRNTLEWCLPVIDAKNKSGSLEFSIAGQPNDFFPVQVSFVSKKNYCNIQVTKVTQVDGNSPVRFSTETTFLVDKYEIL
binding: binds
